Measurements: article PMC4441479

Sequences of proteins named here, by UniProt entry; tags and fusion partners are left off.
UniProt Q7Z2W4: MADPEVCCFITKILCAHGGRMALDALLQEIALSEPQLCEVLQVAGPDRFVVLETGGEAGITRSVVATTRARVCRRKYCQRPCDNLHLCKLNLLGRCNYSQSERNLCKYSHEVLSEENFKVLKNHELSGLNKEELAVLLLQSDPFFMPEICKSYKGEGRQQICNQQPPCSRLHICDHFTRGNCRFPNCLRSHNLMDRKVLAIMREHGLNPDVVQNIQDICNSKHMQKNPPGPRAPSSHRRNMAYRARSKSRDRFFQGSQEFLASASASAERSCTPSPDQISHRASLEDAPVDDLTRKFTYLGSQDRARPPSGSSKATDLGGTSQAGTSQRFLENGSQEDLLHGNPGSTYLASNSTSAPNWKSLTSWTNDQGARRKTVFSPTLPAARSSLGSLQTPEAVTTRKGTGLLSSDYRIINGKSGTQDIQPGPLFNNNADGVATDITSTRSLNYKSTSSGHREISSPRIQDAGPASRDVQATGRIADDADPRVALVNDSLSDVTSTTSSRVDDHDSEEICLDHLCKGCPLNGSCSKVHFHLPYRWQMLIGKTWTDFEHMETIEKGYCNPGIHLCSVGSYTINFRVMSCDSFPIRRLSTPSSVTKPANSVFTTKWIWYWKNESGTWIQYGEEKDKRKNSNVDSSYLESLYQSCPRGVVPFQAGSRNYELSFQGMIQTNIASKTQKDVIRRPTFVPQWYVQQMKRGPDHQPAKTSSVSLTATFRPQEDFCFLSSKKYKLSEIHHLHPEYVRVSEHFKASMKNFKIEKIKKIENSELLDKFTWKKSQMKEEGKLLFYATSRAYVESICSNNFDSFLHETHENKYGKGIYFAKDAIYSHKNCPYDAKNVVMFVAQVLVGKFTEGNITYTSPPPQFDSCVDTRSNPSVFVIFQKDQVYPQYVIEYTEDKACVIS

B1: Reticulocalbin 2, EF-hand calcium binding domain (protein, UniProt Q14257-1 23-317)
chain: GKAEELHYPLGERRSDYDREALLGVQEDVDEYVKLGHEEQQKRLQAIIKKIDLDSDGFLTESELSSWIQMSFKHYAMQEAKQQFVEYDKNSDDTVTWDEYNIQMYDRVIDFDENTALDDAEEESFRKLHLKDKKRFEKANQDSGPGLSLEEFIAFEHPEEVDYMTEFVIQEALEEHDKNGDGFVSLEEFLGDYRWDPTANEDPEWILVEKDRFVNDYDKDNDGRLDPQELLPWVVPNNQGIAQEEALHLIDEMDLNGDKKLSEEEILENPDLFLTSEATDYGRQLHDDYFYHDEL
B2: Cell cycle associated protein 1 (protein, UniProt Q14444-1 1-709)
chain: MPSATSHSGSGSKSSGPPPPSGSSGSEAAAGAGAAAPASQHPATGTGAVQTEAMKQILGVIDKKLRNLEKKKGKLDDYQERMNKGERLNQDQLDAVSKYQEVTNNLEFAKELQRSFMALSQDIQKTIKKTARREQLMREEAEQKRLKTVLELQYVLDKLGDDEVRTDLKQGLNGVPILSEEELSLLDEFYKLVDPERDMSLRLNEQYEHASIHLWDLLEGKEKPVCGTTYKVLKEIVERVFQSNYFDSTHNHQNGLCEEEEAASAPAVEDQVPEAEPEPAEEYTEQSEVESTEYVNRQFMAETQFTSGEKEQVDEWTVETVEVVNSLQQQPQAASPSVPEPHSLTPVAQADPLVRRQRVQDLMAQMQGPYNFIQDSMLDFENQTLDPAIVSAQPMNPTQNMDMPQLVCPPVHSESRLAQPNQVPVQPEATQVPLVSSTSEGYTASQPLYQPSHATEQRPQKEPIDQIQATISLNTDQTTASSSLPAASQPQVFQAGTSKPLHSSGINVNAAPFQSMQTVFNMNAPVPPVNEPETLKQQNQYQASYNQSFSSQPHQVEQTELQQEQLQTVVGTYHGSPDQSHQVTGNHQQPPQQNTGFPRSNQPYYNSRGVSRGGSRGARGLMNGYRGPANGFRGGYDGYRPSFSNTPNSGYTQSQFSAPRDYSGYQRDGYQQNFKRGSGQSGPRGAPRGRGGPPRPNRGMPQMNTQQVN
B3: FtsJ homolog 3 (E. coli) (protein, UniProt Q8IY81 1-847)
chain: MGKKGKVGKSRRDKFYHLAKETGYRSRSAFKLIQLNRRFQFLQKARALLDLCAAPGGWLQVAAKFMPVSSLIVGVDLVPIKPLPNVVTLQQDITTERCRQALRKELKTWKVDVVLNDGAPNVGASWVHDAYSQAHLTLMALRLACDFLARGGSFITKVFRSRDYQPLLWIFQQLFRRVQATKPQASRHESAEIFVVCQGFLAPDKVDSKFFDPKFAFKEVEVQAKTVTELVTKKKPKAEGYAEGDLTLYHRTSVTDFLRAANPVDFLSKASEIMVDDEELAQHPATTEDIRVCCQDIRVLGRKELRSLLNWRTKLRRYVAKKLKEQAKALDISLSSGEEDEGDEEDSTAGTTKQPSKEEEEEEEEEQLNQTLAEMKAQEVAELKRKKKKLLREQRKQRERVELKMDLPGVSIADEGETGMFSLSTIRGHQLLEEVTQGDMSAADTFLSDLPRDDIYVSDVEDDGDDTSLDSDLDPEELAGVRGHQGLRDQKRMRLTEVQDDKEEEEEENPLLVPLEEKAVLQEEQANLWFSKGSFAGIEDDADEALEISQAQLLFENRRKGRQQQQKQQLPQTPPSCLKTEIMSPLYQDEAPKGTEASSGTEAATGLEGEEKDGISDSDSSTSSEEEESWEPLRGKKRSRGPKSDDDGFEIVPIEDPAKHRILDPEGLALGAVIASSKKAKRDLIDNSFNRYTFNEDEGELPEWFVQEEKQHRIRQLPVGKKEVEHYRKRWREINARPIKKVAEAKARKKRRMLKRLEQTRKKAEAVVNTVDISEREKVAQLRSLYKKAGLGKEKRHVTYVVAKKGVGRKVRRPAGVRGHFKVVDSRMKKDQRAQQRKEQKKKHKRK
B4: Heterogeneous nuclear ribonucleoprotein A0 (protein, UniProt Q13151 1-305)
chain: MENSQLCKLFIGGLNVQTSESGLRGHFEAFGTLTDCVVVVNPQTKRSRCFGFVTYSNVEEADAAMAASPHAVDGNTVELKRAVSREDSARPGAHAKVKKLFVGGLKGDVAEGDLIEHFSQFGTVEKAEIIADKQSGKKRGFGFVYFQNHDAADKAAVVKFHPIQGHRVEVKKAVPKEDIYSGGGGGGSRSSRGGRGGRGRGGGRDQNGLSKGGGGGYNSYGGYGGGGGGGYNAYGGGGGGSSYGGSDYGNGFGGFGSYSQHQSSYGPMKSGGGGGGGGSSWGGRSNSGPYRGGYGGGGGYGGSSF
B5: MYB binding protein (P160) 1a (protein, UniProt Q9BQG0-1 1-1328)
chain: MESRDPAQPMSPGEATQSGARPADRYGLLKHSREFLDFFWDIAKPEQETRLAATEKLLEYLRGRPKGSEMKYALKRLITGLGVGRETARPCYSLALAQLLQSFEDLPLCSILQQIQEKYDLHQVKKAMLRPALFANLFGVLALFQSGRLVKDQEALMKSVKLLQALAQYQNHLQEQPRKALVDILSEVSKATLQEILPEVLKADLNIILSSPEQLELFLLAQQKVPSKLKKLVGSVNLFSDENVPRLVNVLKMAASSVKKDRKLPAIALDLLRLALKEDKFPRFWKEVVEQGLLKMQFWPASYLCFRLLGAALPLLTKEQLHLVMQGDVIRHYGEHVCTAKLPKQFKFAPEMDDYVGTFLEGCQDDPERQLAVLVAFSSVTNQGLPVTPTFWRVVRFLSPPALQGYVAWLRAMFLQPDLDSLVDFSTNNQKKAQDSSLHMPERAVFRLRKWIIFRLVSIVDSLHLEMEEALTEQVARFCLFHSFFVTKKPTSQIPETKHPFSFPLENQAREAVSSAFFSLLQTLSTQFKQAPGQTQGGQPWTYHLVQFADLLLNHSHNVTTVTPFTAQQRQAWDRMLQTLKELEAHSAEARAAAFQHLLLLVGIHLLKSPAESCDLLGDIQTCIRKSLGEKPRRSRTKTIDPQEPPWVEVLVEILLALLAQPSHLMRQVARSVFGHICSHLTPRALQLILDVLNPETSEDENDRVVVTDDSDERRLKGAEDKSEEGEDNRSSESEEESEGEESEEEERDGDVDQGFREQLMTVLQAGKALGGEDSENEEELGDEAMMALDQSLASLFAEQKLRIQARRDEKNKLQKEKALRRDFQIRVLDLVEVLVTKQPENALVLELLEPLLSIIRRSLRSSSSKQEQDLLHKTARIFTHHLCRARRYCHDLGERAGALHAQVERLVQQAGRQPDSPTALYHFNASLYLLRVLKGNTAEGCVHETQEKQKAGTDPSHMPTGPQAASCLDLNLVTRVYSTALSSFLTKRNSPLTVPMFLSLFSRHPVLCQSLLPILVQHITGPVRPRHQACLLLQKTLSMREVRSCFEDPEWKQLMGQVLAKVTENLRVLGEAQTKAQHQQALSSLELLNVLFRTCKHEKLTLDLTVLLGVLQGQQQSLQQGAHSTGSSRLHDLYWQAMKTLGVQRPKLEKKDAKEIPSATQSPISKKRKKKGFLPETKKRKKRKSEDGTPAEDGTPAATGGSQPPSMGRKKRNRTKAKVPAQANGTPTTKSPAPGAPTRSPSTPAKSPKLQKKNQKPSQVNGAPGSPTEPAGQKQHQKALPKKGVLGKSPLSALARKKARLSLVIRSPSLLQSGAKKKAQVRKAGKP
B6: Ribosomal RNA processing 1B (protein, UniProt Q14684-1 1-758)
chain: MAPAMQPAEIQFAQRLASSEKGIRDRAVKKLRQYISVKTQRETGGFSQEELLKIWKGLFYCMWVQDEPLLQEELANTIAQLVHAVNNSAAQHLFIQTFWQTMNREWKGIDRLRLDKYYMLIRLVLRQSFEVLKRNGWEESRIKVFLDVLMKEVLCPESQSPNGVRFHFIDIYLDELSKVGGKELLADQNLKFIDPFCKIAAKTKDHTLVQTIARGVFEAIVDQSPFVPEETMEEQKTKVGDGDLSAEEIPENEVSLRRAVSKKKTALGKNHSRKDGLSDERGRDDCGTFEDTGPLLQFDYKAVADRLLEMTSRKNTPHFNRKRLSKLIKKFQDLSEGSSISQLSFAEDISADEDDQILSQGKHKKKGNKLLEKTNLEKEKGSRVFCVEEEDSESSLQKRRRKKKKKHHLQPENPGPGGAAPSLEQNRGREPEASGLKALKARVAEPGAEATSSTGEESGSEHPPAVPMHNKRKRPRKKSPRAHREMLESAVLPPEDMSQSGPSGSHPQGPRGSPTGGAQLLKRKRKLGVVPVNGSGLSTPAWPPLQQEGPPTGPAEGANSHTTLPQRRRLQKKKAGPGSLELCGLPSQKTASLKKRKKMRVMSNLVEHNGVLESEAGQPQALGSSGTCSSLKKQKLRAESDFVKFDTPFLPKPLFFRRAKSSTATHPPGPAVQLNKTPSSSKKVTFGLNRNMTAEFKKTDKSILVSPTGPSRVAFDPEQKPLHGVLKTPTSSPASSPLVAKKPLTTTPRRRPRAMDFF
B7: Coiled-coil domain containing 86 (protein, UniProt Q9H6F5-1 1-360)
chain: MDTPLRRSRRLGGLRPESPESLTSVSRTRRALVEFESNPEETREPGSPPSVQRAGLGSPERPPKTSPGSPRLQQGAGLESPQGQPEPGAASPQRQQDLHLESPQRQPEYSPESPRCQPKPSEEAPKCSQDQGVLASELAQNKEELTPGAPQHQLPPVPGSPEPYPGQQAPGPEPSQPLLELTPRAPGSPRGQHEPSKPPPAGETVTGGFGAKKRKGSSSQAPASKKLNKEELPVIPKGKPKSGRVWKDRSKKRFSQMLQDKPLRTSWQRKMKERQERKLAKDFARHLEEEKERRRQEKKQRRAENLKRRLENERKAEVVQVIRNPAKLKRAKKKQLRSIEKRDTLALLQKQPPQQPAAKI
B8: Cold shock domain containing E1, RNA-binding (protein, UniProt O75534-3 1-813)
chain: MENVFTVSSDPHPSPAAPPSLSLPLSSSSTSSGTKKQKRTPTYQRSMSFDPNLLHNNGHNGYPNGTSAALRETGVIEKLLTSYGFIQCSERQARLFFHCSQYNGNLQDLKVGDDVEFEVSSDRRTGKPIAVKLVKIKQEILPEERMNGQEVFYLTYTPEDVEGNVQLETGDKINFVIDNNKHTGAVSARNIMLLKKKQARCQGVVCAMKEAFGFIERGDVVKEIFFHYSEFKGDLETLQPGDDVEFTIKDRNGKEVATDVRLLPQGTVIFEDISIEHFEGTVTKVIPKVPSKNQNDPLPGRIKVDFVIPKELPFGDKDTKSKVTLLEGDHVRFNISTDRRDKLERATNIEVLSNTFQFTNEAREMGVIAAMRDGFGFIKCVDRDVRMFFHFSEILDGNQLHIADEVEFTVVPDMLSAQRNHAIRIKKLPKGTVSFHSHSDHRFLGTVEKEATFSNPKTTSPNKGKEKEAEDGIIAYDDCGVKLTIAFQAKDVEGSTSPQIGDKVEFSISDKQRPGQQVATCVRLLGRNSNSKRLLGYVATLKDNFGFIETANHDKEIFFHYSEFSGDVDSLELGDMVEYSLSKGKGNKVSAEKVNKTHSVNGITEEADPTIYSGKVIRPLRSVDPTQTEYQGMIEIVEEGDMKGEVYPFGIVGMANKGDCLQKGESVKFQLCVLGQNAQTMAYNITPLRRATVECVKDQFGFINYEVGDSKKLFFHVKEVQDGIELQAGDEVEFSVILNQRTGKCSACNVWRVCEGPKAVAAPRPDRLVNRLKNITLDDASAPRLMVLRQPRGPDNSMGFGAERKIRQAGVID
B9: DDB1- and CUL4-associated factor 7 (protein, UniProt P61962-1 1-342)
chain: MSLHGKRKEIYKYEAPWTVYAMNWSVRPDKRFRLALGSFVEEYNNKVQLVGLDEESSEFICRNTFDHPYPTTKLMWIPDTKGVYPDLLATSGDYLRVWRVGETETRLECLLNNNKNSDFCAPLTSFDWNEVDPYLLGTSSIDTTCTIWGLETGQVLGRVNLVSGHVKTQLIAHDKEVYDIAFSRAGGGRDMFASVGADGSVRMFDLRHLEHSTIIYEDPQHHPLLRLCWNKQDPNYLATMAMDGMEVVILDVRVPCTPVARLNNHRACVNGIAWAPHSSCHICTAADDHQALIWDIQQMPRAIEDPILAYTAEGEINNVQWASTQPDWIAICYNNCLEILRV

Molecular target: ZAP-L-FL (FLAG-tagged ZAP-L) (human) (UniProt Q7Z2W4)
Assay: affinity purification with mass spectrometry; ZAP-L-FL or empty vector transfected in 293T; IP with α-FLAG agarose from whole cell lysates (sonication) in the presence or absence of 30 μg/ml RNase; tandem MS; hits: 3 or more peptides, two replicate IPs, not in vector control

Binder	binding
B1	binds
B2	binds
B3	binds
B4	binds
B5	binds
B6	binds
B7	binds
B8	binds
B9	binds

Results are given in words; binding and its absence hold for the method and conditions named. In cells and extracts the contact can be indirect. A yes stands for co-enrichment or nearness to the bait. Other partners may have been found.
